Screening data, single-dose tests

The values are deposited in ChEMBL (CHEMBL3988442, “University of Dundee, Small-Polar-MMV Screening Library” (2021)).

T. brucei: 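Whole-parasite assay of Trypanosoma brucei over 72 hours; the read-out is not stated. Tested at 30 µM. Higher reads as stronger inhibition (inferred: compounds with an IC50 in retests scored well above the rest). Values scatter widely below zero; nearly all retest evidence comes from the higher of the two concentrations used. About 64,000 compounds were tested under these conditions; 1.5% (about 940) showed 50% or more at least once.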
Leishmania in macrophages: 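Cell assay of Leishmania donovani living inside macrophages; the read-out is not stated. Tested at 30 µM. The record gives no direction; compounds that gave an IC50 in retests scored well above the rest, so higher reads as stronger inhibition. Of about 69,000 compounds tested this way, about 1,000 (1.5%) reached 50% or more in at least one test.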

The filed quantity is “Percent Effect” (%).
The record does not define 0% and 100%; most values in the screen are far below 50% and negative numbers occur (in some assays of this library far below -100).
Compounds were drawn at random from those tested, without regard to their results.

Result for Cc1cc(C)c2c(NCc3nncn3C3CCCCC3)ncnc2n1 was T. brucei: -88.18%; Leishmania in macrophages: 17.93%.
Result for CCCn1nc2c(cc1=O)CN(c1ncnc3ccsc13)CC2 was T. brucei: 2.74%; Leishmania in macrophages: 56.14%.
Result for CCOc1ccc(Cl)c(C(=O)N2CCCSCC2)n1 was T. brucei: 12.08%; Leishmania in macrophages: -3.03%.
Result for Cc1cc(=O)n(CC(=O)Nc2ccc(C(N)=O)cc2)nc1C was T. brucei: 1.675%; Leishmania in macrophages: 0.5424%.
Result for COCc1n[nH]/c(=N\C(=O)c2c3c(nc4onc(C)c24)CCC3)s1 was T. brucei: -8.12%; Leishmania in macrophages: 6.029%.
Result for [H][C@@]12C[C@@H](c3ccncn3)O[C@]1([H])CN(C(=O)c1c(C)noc1C)C2 was T. brucei: 28.26%; Leishmania in macrophages: -0.9126%.
Result for CCC(C)Oc1cc(C(=O)N(c2cccnc2)C(C)C)ccn1 (stereo not shown) was T. brucei: -88.28%; Leishmania in macrophages: -4.779%.
Result for CCOCC1CN(C(=O)c2ccco2)Cc2cnn(C)c21 (stereo not shown) was T. brucei: -5.646%; Leishmania in macrophages: -13.18%.
Result for CNS(=O)(=O)Cc1ccc(CNC(=O)Nc2cccnc2)cc1 was T. brucei: -21.83%; Leishmania in macrophages: 23.89%.
Result for CC(C)c1nccn1C1CCCN(C(=O)c2ccn(C)c(=O)c2)C1 (stereo not shown) was T. brucei: -19.63%; Leishmania in macrophages: 4.278%.
Result for CC(=O)NCCc1ccc(S(=O)(=O)Nc2ccc(C)cc2F)s1 was T. brucei: 0.5137%; Leishmania in macrophages: 4.917%.
Result for CC(C)C(NC(=O)c1cnc(N2CCOCC2)nc1)c1cccs1 (stereo not shown) was T. brucei: 2.661%; Leishmania in macrophages: 16.51%.
Result for Cc1cc(C)n(C2CCCN(C(=O)Cn3ccc(=O)n(C)c3=O)C2)n1 (stereo not shown) was T. brucei: -2.253%; Leishmania in macrophages: -2.826%.
Result for CNC(C)Cc1ccccc1Sc1ccc(O)cc1.Cl (stereo not shown) was T. brucei: -13.84%; Leishmania in macrophages: 66.06%.
Result for CNC(=O)C(C)(C)CNC(=O)Nc1ccncc1C was T. brucei: -22.19%; Leishmania in macrophages: -3.197%.
Result for Cc1cc(C2CCCN2Cc2nc(-c3ccco3)no2)on1 (stereo not shown) was T. brucei: -25.59%; Leishmania in macrophages: 20.34%.
Result for Cc1ccccc1NC(=O)CNC(C)COc1ccccc1 (stereo not shown) was T. brucei: 5.831%; Leishmania in macrophages: -4.207%.
Result for CC(C)(C)n1nnnc1CN(CCc1ccccc1)Cc1ccccc1 was Leishmania in macrophages: 46.18%.
Result for Cc1cc(C)n(CC2CCCCN2CC(=O)Nc2nnc(C)s2)n1 (stereo not shown) was T. brucei: 2.346%; Leishmania in macrophages: 41%.
Result for CC(NC(=O)N(C)Cc1ccncc1)c1cn(-c2ccccc2)nn1 (stereo not shown) was T. brucei: -12.04%; Leishmania in macrophages: -5.505%.
Result for COc1cc2nc(NCc3cc(C)on3)nc(N)c2cc1OC was T. brucei: -6.228%; Leishmania in macrophages: -3.382%.
Result for CN(CCNC(=O)Nc1ccncc1)C1CCCCC1 was T. brucei: 39.67%; Leishmania in macrophages: -3.176%.
Result for Cc1cc(C)n(CC2CCCN2C(=O)c2ccc3c(c2)COC3)n1 (stereo not shown) was T. brucei: -12.43%; Leishmania in macrophages: 25.03%.
Result for N#Cc1cc(F)c(NCCc2cccnc2)c(F)c1 was T. brucei: -4.484%; Leishmania in macrophages: -4.531%.
Result for COCC(=O)N1CCC2(CC1)CN(c1ncccn1)CCO2 was T. brucei: -22.4%; Leishmania in macrophages: 2.18%.
Result for O=C(O)C(F)(F)F.[H][C@]12CN(Cc3cccnc3)C(=O)[C@@]1([H])CN(S(=O)(=O)c1ccccc1)C2 was T. brucei: -11.89%; Leishmania in macrophages: -5.973%.
Result for O=C(Nc1nc(-c2ccccc2)ns1)N1CCC(F)CC1 was T. brucei: -136.7%; Leishmania in macrophages: -1.545%.
Result for CN1CCN(Cc2ccncc2)C(=O)C12CCN(c1nccs1)CC2.O=C(O)C(F)(F)F.O=C(O)C(F)(F)F was T. brucei: -64.23%; Leishmania in macrophages: 5.167%.
Result for Cc1[nH]c(C2(N)CCCCC2)nc(=O)c1C.Cl was T. brucei: -1.704%; Leishmania in macrophages: 27.19%.

Some entries from above, unchanged:

{"compound": "CN1CCN(Cc2ccncc2)C(=O)C12CCN(c1nccs1)CC2.O=C(O)C(F)(F)F.O=C(O)C(F)(F)F", "T. brucei": -64.23, "Leishmania in macrophages": 5.167}
{"compound": "CC(NC(=O)N(C)Cc1ccncc1)c1cn(-c2ccccc2)nn1", "stereo": "stereo not shown", "T. brucei": -12.04, "Leishmania in macrophages": -5.505}